Experimental data published in the supplement of paper PMC11006884.
This is a selection; strong and weak results do not stand in their true shares.

Protein sequences, listed by entry. Tags and fused reporters are not part of them. Lines headed by an entry give the natural chain unless they say otherwise; changes in a name come on top.
UniProt Q92785, whole entry, looked up: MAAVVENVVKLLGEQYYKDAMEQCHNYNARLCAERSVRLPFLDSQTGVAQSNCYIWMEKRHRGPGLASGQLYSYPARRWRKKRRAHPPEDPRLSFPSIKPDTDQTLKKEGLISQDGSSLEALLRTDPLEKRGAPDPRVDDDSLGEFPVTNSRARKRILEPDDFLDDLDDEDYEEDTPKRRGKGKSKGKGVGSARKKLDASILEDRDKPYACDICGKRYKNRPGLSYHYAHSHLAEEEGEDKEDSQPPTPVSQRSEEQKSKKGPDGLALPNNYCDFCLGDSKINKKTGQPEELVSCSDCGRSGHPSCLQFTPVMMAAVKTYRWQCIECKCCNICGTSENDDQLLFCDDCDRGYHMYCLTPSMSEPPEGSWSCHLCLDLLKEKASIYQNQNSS
UniProt Q92782, whole entry, looked up: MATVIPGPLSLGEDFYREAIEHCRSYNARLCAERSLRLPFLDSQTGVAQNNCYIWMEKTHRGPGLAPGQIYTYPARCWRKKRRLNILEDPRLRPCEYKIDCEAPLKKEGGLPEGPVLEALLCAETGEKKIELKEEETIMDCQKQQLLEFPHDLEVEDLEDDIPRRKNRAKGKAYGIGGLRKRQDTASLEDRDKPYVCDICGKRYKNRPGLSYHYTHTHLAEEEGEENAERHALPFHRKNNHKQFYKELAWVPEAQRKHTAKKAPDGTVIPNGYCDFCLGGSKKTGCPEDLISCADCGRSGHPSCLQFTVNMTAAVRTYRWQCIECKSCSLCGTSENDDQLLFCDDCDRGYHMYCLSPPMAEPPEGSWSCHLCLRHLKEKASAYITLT
UniProt Q96CS3: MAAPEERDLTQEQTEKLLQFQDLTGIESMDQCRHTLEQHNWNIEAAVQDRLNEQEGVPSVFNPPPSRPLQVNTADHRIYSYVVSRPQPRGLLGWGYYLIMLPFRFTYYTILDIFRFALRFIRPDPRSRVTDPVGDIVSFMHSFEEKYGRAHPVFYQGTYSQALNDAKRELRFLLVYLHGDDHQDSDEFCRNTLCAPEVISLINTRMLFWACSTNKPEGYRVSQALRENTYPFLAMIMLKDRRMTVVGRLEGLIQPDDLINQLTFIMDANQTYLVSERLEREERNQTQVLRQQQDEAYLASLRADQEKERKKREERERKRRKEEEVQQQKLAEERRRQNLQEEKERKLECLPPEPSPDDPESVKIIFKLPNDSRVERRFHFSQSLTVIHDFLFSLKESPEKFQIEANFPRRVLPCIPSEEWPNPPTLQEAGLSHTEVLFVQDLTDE
UniProt Q96CW6: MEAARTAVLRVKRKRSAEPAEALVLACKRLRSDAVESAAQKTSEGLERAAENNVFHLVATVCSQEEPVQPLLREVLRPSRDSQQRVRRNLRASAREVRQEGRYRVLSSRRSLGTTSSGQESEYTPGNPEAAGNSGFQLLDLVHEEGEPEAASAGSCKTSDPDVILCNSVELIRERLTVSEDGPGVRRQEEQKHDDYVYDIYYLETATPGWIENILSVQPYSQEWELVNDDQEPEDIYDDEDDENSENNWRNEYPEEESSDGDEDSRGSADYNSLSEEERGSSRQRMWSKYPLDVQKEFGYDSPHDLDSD
UniProt Q92615, whole entry, looked up: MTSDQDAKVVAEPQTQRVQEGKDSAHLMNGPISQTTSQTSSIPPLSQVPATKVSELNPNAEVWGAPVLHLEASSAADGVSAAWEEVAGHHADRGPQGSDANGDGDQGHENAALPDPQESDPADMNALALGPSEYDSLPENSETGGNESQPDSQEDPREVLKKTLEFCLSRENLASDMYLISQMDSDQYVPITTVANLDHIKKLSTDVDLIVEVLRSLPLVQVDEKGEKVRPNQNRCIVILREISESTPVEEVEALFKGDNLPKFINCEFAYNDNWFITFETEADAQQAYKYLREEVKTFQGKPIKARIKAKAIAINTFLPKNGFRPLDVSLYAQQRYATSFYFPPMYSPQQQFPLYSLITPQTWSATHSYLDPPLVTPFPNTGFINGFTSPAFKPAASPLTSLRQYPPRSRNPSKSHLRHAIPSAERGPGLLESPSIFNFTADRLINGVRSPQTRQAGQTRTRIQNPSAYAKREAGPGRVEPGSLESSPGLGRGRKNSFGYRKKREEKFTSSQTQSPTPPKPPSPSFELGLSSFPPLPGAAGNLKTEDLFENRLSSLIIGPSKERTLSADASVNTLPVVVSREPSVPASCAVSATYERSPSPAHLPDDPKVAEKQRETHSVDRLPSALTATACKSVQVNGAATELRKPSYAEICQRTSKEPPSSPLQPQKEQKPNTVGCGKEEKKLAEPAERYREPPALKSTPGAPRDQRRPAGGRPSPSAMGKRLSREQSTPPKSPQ
UniProt Q92990: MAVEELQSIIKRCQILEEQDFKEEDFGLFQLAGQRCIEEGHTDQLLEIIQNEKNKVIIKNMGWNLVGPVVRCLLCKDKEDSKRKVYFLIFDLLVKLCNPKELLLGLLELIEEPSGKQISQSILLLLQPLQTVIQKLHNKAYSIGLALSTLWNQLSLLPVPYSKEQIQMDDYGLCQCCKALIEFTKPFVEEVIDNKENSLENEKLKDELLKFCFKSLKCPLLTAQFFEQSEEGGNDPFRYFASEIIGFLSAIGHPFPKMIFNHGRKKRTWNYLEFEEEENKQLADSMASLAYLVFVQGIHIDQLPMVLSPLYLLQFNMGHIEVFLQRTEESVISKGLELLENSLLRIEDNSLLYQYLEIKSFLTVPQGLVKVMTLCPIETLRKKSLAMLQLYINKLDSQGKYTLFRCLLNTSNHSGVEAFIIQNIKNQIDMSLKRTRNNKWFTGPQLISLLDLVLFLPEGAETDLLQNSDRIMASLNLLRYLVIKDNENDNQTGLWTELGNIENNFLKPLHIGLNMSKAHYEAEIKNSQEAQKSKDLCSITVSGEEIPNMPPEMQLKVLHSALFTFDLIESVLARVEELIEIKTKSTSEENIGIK
UniProt Q92796: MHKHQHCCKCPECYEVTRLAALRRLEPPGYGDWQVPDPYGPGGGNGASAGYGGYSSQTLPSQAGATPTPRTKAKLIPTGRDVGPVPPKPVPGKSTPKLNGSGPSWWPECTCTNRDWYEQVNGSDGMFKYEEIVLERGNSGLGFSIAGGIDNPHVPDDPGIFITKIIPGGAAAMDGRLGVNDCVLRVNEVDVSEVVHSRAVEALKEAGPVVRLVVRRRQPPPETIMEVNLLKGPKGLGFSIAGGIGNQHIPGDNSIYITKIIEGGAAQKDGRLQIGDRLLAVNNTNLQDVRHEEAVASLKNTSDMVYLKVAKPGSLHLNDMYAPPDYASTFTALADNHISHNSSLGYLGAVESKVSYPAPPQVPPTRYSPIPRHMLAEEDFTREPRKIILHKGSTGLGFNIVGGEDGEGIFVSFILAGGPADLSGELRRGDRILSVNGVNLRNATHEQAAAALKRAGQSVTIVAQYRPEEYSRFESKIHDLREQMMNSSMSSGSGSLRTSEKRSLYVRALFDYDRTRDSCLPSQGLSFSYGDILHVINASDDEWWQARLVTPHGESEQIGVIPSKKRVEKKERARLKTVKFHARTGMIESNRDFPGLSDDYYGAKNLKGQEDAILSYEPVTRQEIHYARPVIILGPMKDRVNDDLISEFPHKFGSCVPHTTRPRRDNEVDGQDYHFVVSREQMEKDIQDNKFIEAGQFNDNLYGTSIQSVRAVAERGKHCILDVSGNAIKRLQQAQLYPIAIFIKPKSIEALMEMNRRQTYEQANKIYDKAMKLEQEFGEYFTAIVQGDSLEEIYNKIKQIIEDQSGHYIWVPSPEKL
UniProt Q93100: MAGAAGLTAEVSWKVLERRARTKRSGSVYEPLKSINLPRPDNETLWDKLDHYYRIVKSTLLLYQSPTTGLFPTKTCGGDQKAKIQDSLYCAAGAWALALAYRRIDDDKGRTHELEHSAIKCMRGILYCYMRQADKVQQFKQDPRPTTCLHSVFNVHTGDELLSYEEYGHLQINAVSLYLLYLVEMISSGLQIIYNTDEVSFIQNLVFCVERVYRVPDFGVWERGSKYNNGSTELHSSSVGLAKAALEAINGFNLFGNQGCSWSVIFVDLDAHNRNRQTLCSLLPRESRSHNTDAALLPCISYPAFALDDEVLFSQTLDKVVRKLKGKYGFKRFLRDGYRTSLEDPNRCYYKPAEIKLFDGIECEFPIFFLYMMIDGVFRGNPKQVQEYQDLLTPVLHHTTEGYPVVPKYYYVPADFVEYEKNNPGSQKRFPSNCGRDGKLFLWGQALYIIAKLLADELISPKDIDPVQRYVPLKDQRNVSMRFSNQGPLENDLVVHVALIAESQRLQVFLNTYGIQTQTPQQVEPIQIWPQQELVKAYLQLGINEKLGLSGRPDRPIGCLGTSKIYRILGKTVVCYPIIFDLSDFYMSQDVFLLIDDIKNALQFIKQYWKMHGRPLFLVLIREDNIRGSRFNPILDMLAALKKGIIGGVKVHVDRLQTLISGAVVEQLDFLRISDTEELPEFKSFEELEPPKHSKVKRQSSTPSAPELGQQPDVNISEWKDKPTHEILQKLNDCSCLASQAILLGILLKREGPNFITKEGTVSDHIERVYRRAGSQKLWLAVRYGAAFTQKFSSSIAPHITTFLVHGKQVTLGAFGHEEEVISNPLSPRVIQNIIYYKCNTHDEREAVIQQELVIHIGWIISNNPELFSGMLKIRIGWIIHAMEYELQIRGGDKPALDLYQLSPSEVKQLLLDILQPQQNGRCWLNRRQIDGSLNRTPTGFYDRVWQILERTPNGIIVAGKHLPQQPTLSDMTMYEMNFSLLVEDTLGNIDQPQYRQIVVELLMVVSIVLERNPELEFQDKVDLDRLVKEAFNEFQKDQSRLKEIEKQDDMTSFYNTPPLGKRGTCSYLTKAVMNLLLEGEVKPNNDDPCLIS
UniProt Q92922, whole entry, looked up: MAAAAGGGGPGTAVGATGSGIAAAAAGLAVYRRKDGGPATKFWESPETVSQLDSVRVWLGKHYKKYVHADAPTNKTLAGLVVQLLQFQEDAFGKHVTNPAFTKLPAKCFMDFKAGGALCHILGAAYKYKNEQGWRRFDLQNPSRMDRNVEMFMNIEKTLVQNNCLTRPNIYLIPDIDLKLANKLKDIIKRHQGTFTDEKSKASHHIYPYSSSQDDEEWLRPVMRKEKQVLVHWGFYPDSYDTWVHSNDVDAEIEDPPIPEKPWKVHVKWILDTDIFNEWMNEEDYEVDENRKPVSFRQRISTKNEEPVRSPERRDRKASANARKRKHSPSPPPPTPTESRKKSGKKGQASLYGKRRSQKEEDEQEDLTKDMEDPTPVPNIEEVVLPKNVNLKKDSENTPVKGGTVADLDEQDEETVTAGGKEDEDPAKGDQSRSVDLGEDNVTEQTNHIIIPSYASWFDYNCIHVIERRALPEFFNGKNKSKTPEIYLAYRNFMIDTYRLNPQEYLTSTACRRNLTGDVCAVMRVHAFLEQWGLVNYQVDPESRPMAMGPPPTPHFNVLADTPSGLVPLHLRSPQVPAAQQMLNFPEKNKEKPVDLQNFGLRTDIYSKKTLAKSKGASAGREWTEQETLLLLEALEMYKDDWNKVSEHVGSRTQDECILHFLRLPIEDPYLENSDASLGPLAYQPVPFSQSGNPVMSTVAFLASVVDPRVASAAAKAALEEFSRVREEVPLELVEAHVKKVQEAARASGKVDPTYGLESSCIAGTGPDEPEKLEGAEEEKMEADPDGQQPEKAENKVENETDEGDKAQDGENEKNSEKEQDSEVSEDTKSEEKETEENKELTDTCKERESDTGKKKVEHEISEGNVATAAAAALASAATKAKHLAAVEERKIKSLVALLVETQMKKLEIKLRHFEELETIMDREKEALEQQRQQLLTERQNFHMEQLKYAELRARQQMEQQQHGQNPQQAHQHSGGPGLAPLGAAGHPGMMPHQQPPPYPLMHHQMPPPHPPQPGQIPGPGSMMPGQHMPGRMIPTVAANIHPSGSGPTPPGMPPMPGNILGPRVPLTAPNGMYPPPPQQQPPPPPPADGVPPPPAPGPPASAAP
UniProt Q96GY3: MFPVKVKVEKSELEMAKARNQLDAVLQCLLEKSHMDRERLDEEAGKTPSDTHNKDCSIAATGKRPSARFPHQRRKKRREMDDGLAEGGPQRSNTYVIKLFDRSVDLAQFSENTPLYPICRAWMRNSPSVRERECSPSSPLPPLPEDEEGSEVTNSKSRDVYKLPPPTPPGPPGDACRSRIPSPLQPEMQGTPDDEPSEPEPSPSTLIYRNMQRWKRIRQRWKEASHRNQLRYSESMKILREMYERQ

What follows are targets tested with COC(=O)C#Cc1ccccc1 [methyl 3-phenylpropiolate] (assay: log2 ratio of iodoacetamide-alkyne labeling of the cysteine site, DMSO over compound (competition); higher = stronger covalent engagement of the cysteine by the compound, active = 1 or more). Settings: 500 µM; treatment time 1 h; system: HEK293T cell lysate.
Method in brief: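 Reporter intensities give each cysteine's log2 competition ratio as the mean of control channels over the mean of compound channels. The samples were HEK293T lysate (2 mg/mL) given vehicle or electrophile (500 µM, 1 h, ambient temperature), then iodoacetamide alkyne (1 h), followed by click coupling to sCIP-TMT reagents, pooling, trypsin digestion overnight at 37 °C, streptavidin enrichment, acid elution, Orbitrap Eclipse LC-MS/MS with FAIMS and FragPipe quantification. Duplicate channels and three replicates were run, and cysteines quantified in only one replicate were discarded.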

log2 ratio of iodoacetamide-alkyne labeling, inactive:
DPF2 C306 (UniProt Q92785) -0.0956, DPF1 C149 (UniProt Q92782) 0.289, FAF2 C32 (UniProt Q96CS3) 0.0262, SLC7A6OS C166 (UniProt Q96CW6) 0.807, UniProt Q92615_C633 0.556, GTPBP3 C489 (UniProt Q969Y2) -0.093, NRBF2 C126 (UniProt Q96F24) 0.14, UniProt Q92616_C2015 0.375, GLMN C406 (UniProt Q92990) -0.506, DLG3 C519 (UniProt Q92796) 0.214, PHKB C299 (UniProt Q93100) -0.0632, FAF2 C194 (UniProt Q96CS3) 0.689, SMARCC1 C164 (UniProt Q92922) 0.146, LIN37 C28 (UniProt Q96GY3) 0.0818, NUP205 C877 (UniProt Q92621) 0.102, AKT1S1 C61 (UniProt Q96B36) 0.266
